These are yes or no findings as the source states them, for the method shown. In cells and extracts the contact can be indirect. Some entries that bind do so weakly or less than the wild type.

The chains behind the UniProt entries cited, without tags or fusion partners.
UniProt P54578: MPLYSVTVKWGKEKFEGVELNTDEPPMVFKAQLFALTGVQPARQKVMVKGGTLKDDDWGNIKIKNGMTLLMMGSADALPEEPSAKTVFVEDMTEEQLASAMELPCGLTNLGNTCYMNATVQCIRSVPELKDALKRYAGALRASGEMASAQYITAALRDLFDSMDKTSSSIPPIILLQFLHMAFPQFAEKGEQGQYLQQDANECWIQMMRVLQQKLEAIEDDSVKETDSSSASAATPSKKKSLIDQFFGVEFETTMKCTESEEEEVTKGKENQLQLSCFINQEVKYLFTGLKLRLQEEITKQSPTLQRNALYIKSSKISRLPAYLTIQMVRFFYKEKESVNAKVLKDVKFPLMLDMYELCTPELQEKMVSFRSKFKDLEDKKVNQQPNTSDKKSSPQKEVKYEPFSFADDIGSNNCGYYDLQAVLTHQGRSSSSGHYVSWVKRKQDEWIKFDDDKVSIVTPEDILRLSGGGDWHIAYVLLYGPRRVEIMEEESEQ

This test deals with 3×Flag-USP14 (ubiquitin-specific peptidase 14) (UniProt P54578). As to the kind of experiment: co-IP; Flag-USP14 and HA-JNK co-expressed in HEK293T cells; lysis buffer 20 mM Tris-HCl pH 7.4, 150 mM NaCl, 0.5% Triton X-100; antibody 12 h at 4 °C, protein A/G magnetic beads; western blot. On the technique in general: A western blot detects proteins with antibodies after separation by electrophoresis.

As to “3×HA-JNK2 (c-Jun N-terminal kinase 2) (from UniProt P45984 1-424) (enzyme)”, the binding entry is given as “binds”.

The values are drawn from publication PMC9873792.
